The whole screen tested about 350,000 compounds, of which about 220 (0.063%) were called active. Inconclusive means that the source gave no clear call. Such entries were picked first, then a sample of the others. Calls come from the whole dose curve; as a rule, active = well fitted activation curve with a large enough effect; inconclusive = small, poorly fitted or top-dose-only effect; inactive = no such curve, though single readings can be large or run the other way. Potencies of inconclusive entries are doubtful fits and often do not repeat.
Experiment: qHTS for Activators of Integrin-Mediated Alleviation for Muscular Dystrophy; note: nearly all actives have a fitted effect of over 60% in size;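 for activation: 100% = response of the positive control SU9516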
Settings: alpha7betagal myoblasts, beta-gal FDG fluorescence, 48 h; activation: at 38.3 µM (top of the series)
How it was run: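 Alpha7betagal+/- myoblasts (passage 13) were plated 16-24 hr, then exposed to compounds (1:260 dilution of DMSO stock) for 48 hours at 37C. After MPER lysis, β-galactosidase reporter activity was read as FDG fluorescence (ex 480/em 540) after 30 minutes.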
Potency is the fitted concentration of half-maximal effect.

Potency, inconclusive:
O=C(COc1ccc(Cl)cc1)N(Cc1ccccc1)c1nc(-c2ccccc2)cs1 10 µM [activator, partial curve, poor fit]
C=CC(n1cncn1)C(O)(c1ccccc1)c1ccccc1 (centres undefined) 5.01 µM [activator, single point]
COc1ccc(NC(=O)CS(=O)CC(=O)NCC2OCCc3ccccc32)cc1 (centres undefined) 5.01 µM [activator, full curve, poor fit]
CCOC(=O)N1CCN(Cc2nc(CC3CC3)no2)CC1 10 µM [activator, partial curve, poor fit]
C/C(=N\NC(=O)c1cccs1)c1ccc2ccccc2c1 1.78 µM [activator, partial curve, poor fit]
COc1ccc(NC(=S)N2CCC(c3ccccc3)C2)cc1 (centres undefined) 11.2 µM [activator, partial curve, poor fit]
CCCCN1C(=O)/C(=C/C=C2/C=Cc3ccccc3N2CC)SC1=S 2 µM [activator, partial curve, poor fit]
O=C(O)c1ccc(NS(=O)(=O)c2ccc3c(c2)C2C=CCC2C(c2ccccc2F)N3)cc1 (centres undefined) 0.447 µM [activator, full curve, poor fit]
COC(=O)c1ccc(CNC(=O)COC(=O)CCC2CCCC2)cc1 12.6 µM [activator, partial curve, poor fit]
COc1ccc(-c2cc(-c3ccc(Cl)cc3)n[nH]2)c(O)c1 2.51 µM [activator, partial curve, poor fit]
CC(=O)Nc1ccc(NC(=O)c2c(-c3ccccc3)noc2C)cn1 2.82 µM [activator, single point]
O=C(/C(=C(/[O-])c1ccccc1)[n+]1ccccc1)c1ccc([N+](=O)[O-])cc1 4.47 µM [activator, partial curve]
COc1cccc(OC)c1OCCCCc1c(C)n[nH]c1C 12.6 µM [activator, partial curve, poor fit]
Cn1c(/C=C(\C#N)C(N)=S)ccc1-c1ccc(Br)cc1 5.01 µM [activator, single point]
CC1Sc2ccc(S(=O)(=O)CCC(=O)NCc3ccccc3)cc2NC1=O (centres undefined) 5.01 µM [activator, single point]
CCc1c(C)sc(NC(=O)CCc2ccc(OC)cc2)c1C(N)=O 2 µM [activator, full curve, poor fit]
CCCCOC(=O)CSCC(=O)N1N=C(c2cccs2)CC1c1ccc(F)cc1 (centres undefined) 15.8 µM [activator, single point]
CC(NC(=O)COC(=O)c1ccc(S(=O)(=O)N2CCOCC2)cc1)c1ccccc1 (centres undefined) 20 µM [activator, single point]
COc1ccc(C(CNC(=O)COc2c(C)cc(C)cc2C)N2CCOCC2)cc1 (centres undefined) 5.01 µM [activator, single point]
CC(=O)Oc1ccc(-c2cccc(C(=O)OCC(=O)Nc3ccccc3Oc3ccccc3)c2)cc1 5.01 µM [activator, single point]
O=c1oc2cc(O)ccc2cc1S(=O)(=O)c1ccccc1 2.82 µM [activator, partial curve, poor fit]
Cc1ccc(-n2c(-c3ccccc3)n[nH]c2=S)c(C)c1 5.01 µM [activator, single point]
O=C(CSc1cn[nH]n1)Nc1ccccc1C(F)(F)F 3.98 µM [activator, single point]
Cn1c(CC(=O)NNC(=O)c2cccnc2)nc2ccccc21 2.82 µM [activator, single point]
Cc1cc(C[n+]2ccsc2N)c2ncccc2c1 2 µM [activator, partial curve, poor fit]
Nc1ccc2oc(C3CCCCC3)nc2c1 5.01 µM [activator, single point]
O=C(O)c1ccccc1C(=O)Nn1cnnc1 2.24 µM [activator, single point]
CC(=O)c1c(C)[nH]c(C(=O)COc2ccc3c(C)cc(=O)oc3c2)c1C 0.501 µM [activator, partial curve, poor fit]
COC(=O)c1ccc(NC(=O)C2CCCN2C(=O)OCc2ccccc2)cc1 (centres undefined) 3.98 µM [activator, single point]
O=C(OCC(=O)N1CCN(C(=O)c2ccco2)CC1)c1c(Cl)cccc1Cl 3.16 µM [activator, single point]
O=C(CCNC(=O)C1CCN(S(=O)(=O)c2ccc(F)cc2)CC1)NCCc1ccc(Cl)cc1 20 µM [activator, single point]
COc1cccc2cc(C(=O)N3CCc4ccccc43)c(=O)oc12 5.62 µM [activator, partial curve, poor fit]
COc1cc(OC)c2c(C)cc(=O)oc2c1 11.2 µM [activator, partial curve, poor fit]
CCCOC(=O)Nc1cc(OC)ccc1[N+](=O)[O-] 2.82 µM [activator, single point]
CC/C(=N\NC(=O)C1CCCC1)c1cccc(Br)c1 17.8 µM [activator, single point]
COc1ccc(C2c3[nH]c4ccccc4c3CCN2C(=O)c2cc3ncccn3n2)c(F)c1 (centres undefined) 1.58 µM [activator, full curve, poor fit]
COc1ccccc1OCC(=O)Nc1cccc(-c2nnc(-c3ccco3)o2)c1 11.2 µM [activator, partial curve, poor fit]
COc1ccc(C(=O)OCC(=O)NCC2CCCO2)cc1[N+](=O)[O-] (centres undefined) 3.55 µM [activator, full curve, poor fit]
CCOc1ccc(NC(=O)C2CCCN2C(=O)NC2CCCCC2)cc1 (centres undefined) 17.8 µM [activator, single point]
Cc1c(NC(=O)Nc2cccc(C#N)c2)c(=O)n(-c2ccccc2)n1C 11.2 µM [activator, partial curve, poor fit]
O=C(Cn1cncn1)N/N=C/c1cccc(Cl)c1 28.2 µM [activator, single point]
Cc1cc(C)c(NC(=O)COc2cccnc2[N+](=O)[O-])c(C)c1 3.16 µM [activator, single point]
O=C(NC1CCC1)C1CCC(=O)N(Cc2ccccc2F)C1 (centres undefined) 28.2 µM [activator, single point]
Cc1ccc(C2=NN(C(=O)C3CCCO3)C(c3ccco3)C2)cc1 (centres undefined) 5.01 µM [activator, single point]
COc1ccc(CNc2oc(COc3ccc(Cl)cc3)nc2C#N)cc1 12.6 µM [activator, partial curve, poor fit]
CC(=O)c1cccc(NC(=O)Nc2cccnc2)c1 11.2 µM [activator, partial curve, poor fit]
NS(=O)(=O)c1cccc(NC(=O)CCC(=O)c2cccs2)c1 10 µM [activator, single point]
CN1CCN(S(=O)(=O)c2ccc(NC(=O)Cc3ccc([N+](=O)[O-])cc3)cc2)CC1 5.62 µM [activator, partial curve, poor fit]
COc1ccc(CCNC(=O)c2c(N)no[n+]2[O-])cc1OC 7.08 µM [activator, single point]

Fetched one by one from the list above, 4 records:
Potency, inconclusive:
COc1ccc(C2c3[nH]c4ccccc4c3CCN2C(=O)c2cc3ncccn3n2)c(F)c1 (centres undefined) 1.58 µM [activator, full curve, poor fit]
O=C(COc1ccc(Cl)cc1)N(Cc1ccccc1)c1nc(-c2ccccc2)cs1 10 µM [activator, partial curve, poor fit]
CCOc1ccc(NC(=O)C2CCCN2C(=O)NC2CCCCC2)cc1 (centres undefined) 17.8 µM [activator, single point]
O=C(NC1CCC1)C1CCC(=O)N(Cc2ccccc2F)C1 (centres undefined) 28.2 µM [activator, single point]

Following part.

activation, inconclusive:
CC(C)Oc1ccc(CCc2nnc(SCC(=O)O)n2-c2ccccc2)cc1 -38.9% [activator]

activation, inactive:
CC1CCCCC1NC(=O)NC(=O)CCl (centres undefined) -22.6%
Cc1ccc(CC(=O)N/N=C/c2ccc3c(c2)OCO3)cc1 -10.8%
O=C(CNC(=O)c1[nH]cnc1C(=O)N[C@@H](Cc1ccccc1)C(=O)OCc1ccccc1)OCc1ccccc1 -19.2%
COc1ccc(NC(=S)Nc2ncccc2C)c(OC)c1 -47.1%
CC/C(=N/Nc1cccc(Cl)c1)c1cnnc(SC)n1 8.1%
Cc1sc2ncnc(N3CCCCC3)c2c1C -20.2%
O=C(O)CCCCCCCCc1cn(Cc2ccc(C(=O)c3ccccc3)cc2)nn1 -9.1%
COc1cccc(NC(=O)C(=O)N/N=C(\C)CC(=O)Nc2ccc(NC(C)=O)cc2)c1 42.3%
CCOc1ccc(S(=O)(=O)N2CCc3cc(OC)c(OC)cc3C2)cc1 -2.75%
Cc1ccc(-c2nc(N)sc2-c2ccccc2)cc1C -20.1%
CN1CCN(C(=O)c2sc(=S)n(-c3ccccc3)c2N)CC1 0.209%
Cc1ccc(NC(=O)COC(=O)c2nn(C)cc2Cl)cc1 -17.1%
Cc1ccc(S(=O)(=O)/C(=C/Cl)NC(=O)c2ccccc2)cc1 -39.9%
CCOc1ccc2nc3sc(C(=O)N4CCOCC4)c(N)c3cc2c1 1.44%
O=C(Nc1ccccc1C(=O)O)c1ccc(Br)o1 16.9%
c1ccc(-n2c3ccccc3c3ccccc32)cc1 0%
Oc1c(Cl)cc(Cl)c2cccnc12 -20.6%
CCOC(=O)c1[nH]c(=S)n(-c2ccccc2)c1C(=O)OCC -0.954%
CCc1ccc(NC(=O)CN2CCCN(S(=O)(=O)c3ccc(F)cc3)CC2)cc1 -4.04%

— PubChem BioAssay AID624291 (National Center for Advancing Translational Sciences (NCATS), 2012)
